The experiment in a line: qHTS Assay to Find Inhibitors of Chronic Active B-Cell Receptor Signaling. Particulars: ABC-DLBCL IkBa-CBG/CBR reporter, luminescence ratio (green luciferase fused to IkBa over red control in TMD8 lymphoma cells), 4 h. An outline of the steps: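 Cell line TMD8 (human ABC DLBCL), stably expressing tet-inducible CBG68-IkBa fusion and CBR; IMDM/0.5% FBS; cpd up to 46 uM; dox induction, 4 h, 37C/5% CO2; dual luminescence; green/red ratio; MG132 control.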
Background: In qHTS, concentration-response curves come from the screen itself.

Where [1] appears, read: measured here: CBR red luminescence, cell number.
The mark [2] stands for this setting: measured here: IkBa-CBG green luminescence.

The list shows a part of the results. The main result of the screen is listed elsewhere. These columns were measured beside it and carry no call. Most of these compounds were active or inconclusive in the main read-out, so they are no random draw. The note in brackets gives the kind of curve behind each potency; many fits are weak.

For `Cc1cc(C)cc(NC(=O)c2cccc(NC(=O)C3C4CC5OC(=O)C3C5C4)c2)c1` (stereo not drawn), under setting [1], the AC50 – broadly, the concentration giving half of the maximal activity seen – was 10.3 µM [falling, partial curve, poor fit]. The same measure, in the same setting: as for `O=C1c2ccccc2NC(c2ccco2)N1O` (stereo not drawn), the figure is 4.11 µM [rising, single point]. For `COC(=O)Nc1nc2ccc(C(=O)c3ccc(F)cc3)cc2[nH]1`, under setting [2], the AC50 was 2.82 µM [falling, partial curve, poor fit]. For the compound `Cc1ccc2nc(-c3ccc(N4C(=O)CC(N5CCN(CCO)CC5)C4=O)cc3)sc2c1` (stereo not drawn), the concentration at half-maximal activity (AC50) under setting [1] is 32.6 µM [falling, partial curve, poor fit]. `Cc1[nH]n(-c2ccc(Cl)cc2)c(=O)c1N=Nc1cccnc1`: the AC50 under setting [1] is 1.12 µM [rising, full curve, poor fit]. On the same count and under the same terms, the same measure for `O=C(NN1C(=O)c2ccccc2C1=O)C1C2CCCCC21` (stereo not drawn): 11.6 µM [rising, partial curve]; for `Cc1ccc(C(=O)NNC(=S)Nc2cccc3ccccc23)s1`: 10 µM [falling, partial curve, poor fit].

`O=C(NCCN1C(=O)S/C(=C\c2ccc(F)cc2)C1=O)c1cccc(S(=O)(=O)N2CCOCC2)c1`: under setting [1], the AC50 is 20.6 µM [falling, single point].

As for `CC1CN(c2ccc([N+](=O)[O-])cc2Cl)CCN1S(C)(=O)=O` (stereo not drawn), under setting [1], the AC50 is 1.26 µM [falling, partial curve].

For the compound `COc1ccc(N(CC(=O)NCc2ccc(F)cc2)C(=O)Cn2nnc(-c3ccc(C)o3)n2)cc1OC`, the half-maximal activity concentration (AC50) under setting [1] is 2.82 µM [falling, single point]. In the case of `Cc1nn(-c2ncc(C(F)(F)F)cc2Cl)c(=O)n1-c1ccccc1Cl`, the concentration at half-maximal activity (AC50) under setting [1] was 5.8 µM [rising, full curve, poor fit].

As to `O=C(Nc1nnc(C2CC2)s1)c1ccco1`, the AC50 under setting [1] is 22.4 µM [falling, single point]. Still for that read-out and setting: the same measure for `CCc1ccc(C(=O)COC(=O)C(Cc2c[nH]c3ccccc23)NC(=O)c2ccc(CC)cc2)cc1` (stereo not drawn): 0.562 µM [rising, full curve, poor fit]. On the same count and under the same terms, as for `CCN(C(=O)CSc1nc2cc(C(F)(F)F)ccc2n1Cc1ccccc1)C1CCS(=O)(=O)C1` (stereo not drawn), the figure is 2.06 µM [rising, partial curve, poor fit]; as for `Cc1ccccc1CC1(CO)CCCN(C(=O)c2cc(Cl)ccc2F)C1` (stereo not drawn), 35.5 µM [falling, partial curve, poor fit]. With `COCCNC(=O)/C(C#N)=C/c1cn(CC(=O)NCc2ccco2)c2ccccc12`, the half-maximal activity concentration (AC50) under setting [1] was 6.31 µM [rising, single point].

On to `c1ccc2c(Cn3ccnc3)c[nH]c2c1`, for which the AC50 under setting [1] is 20.6 µM [rising, single point]. Same read-out and setting: the same measure for `O=C(c1ccccc1)N1CCc2ccccc21`: 23.1 µM [rising, partial curve, poor fit]; for `COc1ccc(-c2csc(-n3ncc(C(=O)O)c3C(F)(F)F)n2)cc1`: 7.94 µM [falling, partial curve]. On the same count and under the same terms, as for `N#C/C(=C\c1ccc(-c2ccccc2)cc1)c1nc(-c2ccco2)cs1`, the figure is 0.58 µM [rising, full curve, poor fit]. On the same count and under the same terms, as for `CC1(C)Cc2c(sc3nc(-c4ccccc4)n(N)c(=O)c23)CO1`, the figure is 10 µM [falling, partial curve, poor fit]. On to `O=C(/C=C/c1cccs1)N1CCc2ccccc21`, for which the AC50 under setting [1] is 20.6 µM [falling, partial curve, poor fit]. Same read-out and setting: the same measure for `CCCc1cc(C(=O)Nc2sc3c(c2C#N)CCC3)no1`: 5.8 µM [rising, partial curve, poor fit].

Regarding `CCCNC(=O)NC(=O)COC(=O)c1cccc(NS(=O)(=O)c2ccc(F)c(F)c2)c1`, under setting [1], the concentration at half-maximal activity (AC50) was 29.1 µM [falling, single point]. With `CCOCCCNC(=O)/C(C#N)=C/c1cc(Br)c(O)c(Br)c1`, the AC50 was 15.8 µM [rising, single point] under setting [1] and 11.2 µM [falling, single point] under setting [2]. In the case of `COc1cc(C2OC(=O)c3c2ccc(OC)c3OC)ccc1O` (stereo not drawn), the concentration at half-maximal activity (AC50) under setting [1] was 2.31 µM [rising, single point]. In the case of `O=[N+]([O-])c1cccc(-c2csc(Nc3ccccc3)n2)c1`, the AC50 under setting [1] was 35.5 µM [falling, single point]. Still for that read-out and setting: the same measure for `COc1ccc(CC(=O)N/N=C/c2ccc(Cl)s2)cc1OC`: 12.6 µM [rising, single point]; for `CC1CCCN(CCCNC(=O)c2ccc3c(c2)N(Cc2cccc(Cl)c2)C(=O)c2ccccc2S3(=O)=O)C1` (stereo not drawn): 35.5 µM [falling, single point]. Same read-out and setting: as for `O=[N+]([O-])c1nn(-c2ccc3c(c2)OCCO3)n(O)c1=NCCC1=CCCCC1`, the figure is 35.5 µM [rising, partial curve, poor fit]; as for `COc1ccc(/C=C/c2ccc3c(Br)ccc(O)c3n2)cc1`, 8.91 µM [rising, partial curve, poor fit]; as for `CCC(C)NC(=O)[C@H]1N2C(=O)c3c(ccc(OC)c3OC)C2SC1(C)C` (stereo partly drawn), 0.891 µM [falling, full curve, poor fit]. The same measure, in the same setting: the same measure for `O=C(CCS(=O)(=O)c1ccc(Cl)cc1)Nc1nc(-c2ccncc2)cs1`: 0.562 µM [falling, full curve, poor fit]; for `CC(C)NC(=O)CC(c1ccccc1)c1cc(Br)ccc1O` (stereo not drawn): 29.1 µM [falling, single point]; for `O=C(O)CCn1nc(-c2ccc(F)cc2)cc(Cc2ccccc2)c1=O`: 35.5 µM [falling, partial curve, poor fit]. For the compound `CN1CCC(N(C)C(=O)c2ccc(Cl)c(S(=O)(=O)N3CCc4ccccc43)c2)CC1`, the AC50 under setting [1] was 29.1 µM [falling, partial curve, poor fit]. The same measure, in the same setting: the same measure for `Cc1ccc(C)c(CSc2nc3ccncc3n2CC(=O)Nc2ccc(C)c(C)c2)c1`: 29.1 µM [falling, single point]; for `COc1cc(/C=C/c2nc(N)nc(-c3ccccc3O)n2)cc(OC)c1OC`: 2.59 µM [falling, full curve, poor fit]; for `COC(=O)C1=C(C)N(Cc2ccccc2)C(=NCCc2c[nH]c3ccccc23)N[C@H]1c1cccc(F)c1`: 29.1 µM [falling, single point]. On the same count and under the same terms, as for `CCN(CCCNC(=O)CC(C(=O)N1CCc2ccccc21)n1ccnc1)c1cccc(C)c1` (stereo not drawn), the figure is 22.4 µM [falling, partial curve, poor fit]; as for `CCCCNC(=O)C1CCC(CNc2c(N3CCC(C)CC3)c(=O)c2=O)CC1` (stereo not drawn), 10 µM [rising, partial curve]; as for `C/C(=N\NC(=O)Nc1ccccc1)c1ccc2ccccc2c1`, 4.11 µM [rising, full curve, poor fit]. Still for that read-out and setting: the same measure for `Cc1ccccc1NC(=O)c1cn(-c2ccccc2)nc1-c1ccccc1`: 18.4 µM [falling, partial curve, poor fit]. Take `O=C(COc1ccc(NC(=O)c2ccccc2[N+](=O)[O-])cc1)c1ccc(F)cc1`: the AC50 under setting [1] is 25.1 µM [falling, single point]. With `Cc1ccccc1-c1ccnc2[nH]n(-c3ccccc3)c(=O)c12`, under setting [1], the AC50 was 1.41 µM [falling, full curve, poor fit]. On the same count and under the same terms, as for `CC(NC(=O)CSc1nnc(-c2cccc(S(=O)(=O)N3CCCCC3)c2)o1)C12CC3CC(CC(C3)C1)C2` (stereo not drawn), the figure is 0.731 µM [rising, partial curve, poor fit]; as for `C/C(=N\NC(=O)c1nc2ccccn2c1C)c1cc2ccccc2o1`, 5.01 µM [falling, partial curve].

Take `O=C(/C=C/c1ccc(NC(=O)c2ccccc2-c2ccccc2C(=O)O)cc1)c1ccccc1`: the AC50 under setting [1] is 35.5 µM [falling, single point]. Still for that read-out and setting: the same measure for `Nc1nonc1C(=Nc1ccc(Br)cc1)NO`: 1.03 µM [falling, full curve, poor fit]; for `CCN(CCS(=O)(=O)c1ccc(Br)cc1)Cc1nc2ccccc2c(=O)[nH]1`: 5.17 µM [falling, single point]; for `O=C(CNC(=O)Cc1ccccc1)NCC(=O)OCc1ccc(C(=O)c2ccccc2)cc1`: 0.0891 µM [rising, full curve, poor fit]. The same measure, in the same setting: as for `CC(C)(C)C1CCc2onc(C(=O)NCc3ccc(F)cc3)c2C1` (stereo not drawn), the figure is 14.1 µM [falling, single point]. `N=c1n(CCCOc2ccccc2Cl)c2ccccc2n1CC(N)=O`: under setting [1], the half-maximal activity concentration (AC50) was 25.1 µM [falling, single point].

On to `CC(=O)Nc1ccc(S(=O)(=O)N2CCN=C2SCc2ccccc2C)cc1`, for which the AC50 under setting [1] is 10 µM [rising, single point].

Consider `O=C(CCC(=O)c1cccs1)Nc1ccccc1F`, for which the concentration at half-maximal activity (AC50) under setting [1] is 11.2 µM [falling, partial curve]. Still for that read-out and setting: the same measure for `CC(C)c1ccc(NC(=O)CSC2=Nc3ccccc3C3=NC(CC(=O)NCc4cccs4)C(=O)N23)cc1` (stereo not drawn): 7.08 µM [falling, partial curve]; for `Nc1nc(NCc2c(F)cccc2Cl)nn1-c1ccccc1`: 23.1 µM [falling, single point]; for `COc1ccccc1C(CCN(Cc1ccccc1)C(C)=O)c1ccco1` (stereo not drawn): 17.8 µM [falling, partial curve, poor fit].

With `CCc1ccc(NC(=O)C(C)Oc2nnc(-c3cccs3)c(-c3cccs3)n2)cc1` (stereo not drawn), the AC50 under setting [1] was 29.1 µM [rising, single point]. Same read-out and setting: as for `CCOc1ccc(NS(=O)(=O)c2ccc3[nH]cc(C(=O)N(CC)CC)c(=O)c3c2)cc1`, the figure is 12.6 µM [falling, single point].

As for `CC/C(=N\Nc1nncc2ccccc12)c1ccc(F)cc1`, under setting [1], the AC50 is 35.5 µM [falling, single point]. Still for that read-out and setting: as for `N=C1C(c2nc(-c3ccc(F)cc3)cs2)=C(O)CN1Cc1ccc(Cl)cc1`, the figure is 29.1 µM [rising, single point].
